Values from PubChem BioAssay AID1508597 (Cure First, 2020)
Shown is an unselected part of the about 2,100 reagents, under one of the conditions tested. 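Calls flag viability under 80% in either arm, not effects specific to rucaparib; the reference for percent is not stated.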 A number with no mark means an inactive call. No sequences are given here. The record does not give: the 100% reference.

Assay: 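Knock-downs altering ovarian cancer cell survival with or without PARP inhibitor rucaparib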 (primary screen)
Cell system: human ovarian carcinoma lines grown from tumours: OCI-P5x (papillary serous) and OCI-C5x (clear cell)
Reagents: siRNA pool against human genes, 1.25 pmol siRNA per well
Duration: 72 h or 96 h, depending on the cell culture
Treatment: rucaparib 20 µM (about IC30) or vehicle, present until read-out
Rucaparib or vehicle: Vehicle
Cell line: OCI-P5x (serous)
Measurement: 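Luminescent ATP-based viability assay read 72 or 96 h after transfection, depending on culture, given as normalised percent viability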
Direction: viability, normalised: higher = more viable cells remaining
Hit rule: 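Active when normalised viability falls below 80 percent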
Calls: active = viability under 80%; inactive = viability 80% or more

no.	gene	technical replicate	viability, normalised (%)
1	MECP2	1	49.9 (active)
2	MECP2	2	61.7 (active)
3	MECP2	3	68.5 (active)
4	EPHB3	1	70.9 (active)
5	EPHB3	2	40.6 (active)
6	EPHB3	3	36.3 (active)
7	PFKFB1	1	109
8	PFKFB1	2	99.7
9	PFKFB1	3	91.6

No new results follow: an excerpt of the list.
no.	gene	technical replicate	viability, normalised (%)
3	MECP2	3	68.5 (active)
4	EPHB3	1	70.9 (active)
5	EPHB3	2	40.6 (active)

More reagents:
no.	gene	technical replicate	viability, normalised (%)
10	WNT7A	1	73 (active)
11	WNT7A	2	107
12	WNT7A	3	116
13	GK2	1	59.4 (active)
14	GK2	2	57.8 (active)
15	GK2	3	65.8 (active)
16	PDE4A	1	71.6 (active)
17	PDE4A	2	67.2 (active)
18	PDE4A	3	68.9 (active)
19	FOXF2	1	82.8
20	FOXF2	2	96.1
21	FOXF2	3	96
22	BMX	1	66.2 (active)
23	BMX	2	59.2 (active)
24	BMX	3	51.2 (active)
